Results deposited as PubChem BioAssay AID1224830 (NIAID, 2016).
Assay: 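Genes whose knock-down alters the TNF-alpha reporter response to LPS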 (primary screen). Cell system: human THP-1 monocytic leukaemia cells, TNF dual-luciferase reporter clone, PMA-differentiated to macrophage-like cells. Knock-down reagent: siRNA pool against human genes, 50 nM. Duration: LPS for 4 h, given about 3 days after siRNA transfection. Challenge: bacterial LPS (TLR4 ligand), 10 ng/ml. Detection: 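Ratio of firefly to renilla light, scaled to the plate median and expressed as a robust z-score per replicate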. Scale: TNF reporter robust z-score: higher = stronger TNF reporter response to LPS. Rule for the call: 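Each well counts as active if its z-score is over 2.8 or under -1.5; controls are left without a call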.
In all, the deposit lists about 18,000 reagents; shown is a part drawn at random. About 2,900 of all reagents (16%) were called active. 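Calls are made per well; low scores hint the gene aids the LPS response, high scores that it dampens it.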 Entries without a mark were called inactive. Repeated entries: four replicate wells of each siRNA pool.

target	PubChem SID	TNF reporter robust z-score
CHMP7 (charged multivesicular body protein 7)	SID315460953	-0.43
CHMP7 (charged multivesicular body protein 7)	SID315460953	-0.04
CHMP7 (charged multivesicular body protein 7)	SID315460953	-0.17
CHMP7 (charged multivesicular body protein 7)	SID315460953	-0.33
DEPDC1B (DEP domain containing 1B)	SID315457859	-0.05
DEPDC1B (DEP domain containing 1B)	SID315457859	-0.18
DEPDC1B (DEP domain containing 1B)	SID315457859	0.33
DEPDC1B (DEP domain containing 1B)	SID315457859	0.49
ABLIM1 (actin binding LIM protein 1)	SID315449769	-0.45
ABLIM1 (actin binding LIM protein 1)	SID315449769	0.05
ABLIM1 (actin binding LIM protein 1)	SID315449769	-0.56
ABLIM1 (actin binding LIM protein 1)	SID315449769	-0.4
CBFA2T2 (CBFA2/RUNX1 partner transcriptional co-repressor 2)	SID315453075	0.43
CBFA2T2 (CBFA2/RUNX1 partner transcriptional co-repressor 2)	SID315453075	-0.11
CBFA2T2 (CBFA2/RUNX1 partner transcriptional co-repressor 2)	SID315453075	-0.36
CBFA2T2 (CBFA2/RUNX1 partner transcriptional co-repressor 2)	SID315453075	0.66
ANXA9 (annexin A9)	SID315452547	2.83 (active)
ANXA9 (annexin A9)	SID315452547	3.44 (active)
ANXA9 (annexin A9)	SID315452547	5.21 (active)
ANXA9 (annexin A9)	SID315452547	8.24 (active)
GCC2 (GRIP and coiled-coil domain containing 2)	SID315453450	0.34
GCC2 (GRIP and coiled-coil domain containing 2)	SID315453450	1.57
GCC2 (GRIP and coiled-coil domain containing 2)	SID315453450	1.9
GCC2 (GRIP and coiled-coil domain containing 2)	SID315453450	-0.1
HDX (highly divergent homeobox)	SID315462071	-0.62
HDX (highly divergent homeobox)	SID315462071	0.13
HDX (highly divergent homeobox)	SID315462071	0.25
TEAD4 (TEA domain transcription factor 4)	SID315451815	-0.27
TEAD4 (TEA domain transcription factor 4)	SID315451815	-0.07
TEAD4 (TEA domain transcription factor 4)	SID315451815	-0.03
TEAD4 (TEA domain transcription factor 4)	SID315451815	-0.23
RPS25 (ribosomal protein S25)	SID315451243	0.4
RPS25 (ribosomal protein S25)	SID315451243	0.18
RPS25 (ribosomal protein S25)	SID315451243	0.12
RPS25 (ribosomal protein S25)	SID315451243	0.01
MIS12 (MIS12 kinetochore complex component)	SID315459149	-1.23
MIS12 (MIS12 kinetochore complex component)	SID315459149	-1.3
MIS12 (MIS12 kinetochore complex component)	SID315459149	-1.16
MIS12 (MIS12 kinetochore complex component)	SID315459149	-0.8
ZC3H6 (zinc finger CCCH-type containing 6)	SID315464389	1.01
ZC3H6 (zinc finger CCCH-type containing 6)	SID315464389	-0.27
ZC3H6 (zinc finger CCCH-type containing 6)	SID315464389	0.15
ZC3H6 (zinc finger CCCH-type containing 6)	SID315464389	0.55
KLHDC2 (kelch domain containing 2)	SID315455350	2.01
KLHDC2 (kelch domain containing 2)	SID315455350	1.55
KLHDC2 (kelch domain containing 2)	SID315455350	-0.9
KLHDC2 (kelch domain containing 2)	SID315455350	-0.07
KIRREL1 (kirre like nephrin family adhesion molecule 1)	SID315457527	1.15
KIRREL1 (kirre like nephrin family adhesion molecule 1)	SID315457527	2.03
KIRREL1 (kirre like nephrin family adhesion molecule 1)	SID315457527	-0.37
KIRREL1 (kirre like nephrin family adhesion molecule 1)	SID315457527	1.24
POLR1B (RNA polymerase I subunit B)	SID315460223	-0.22
POLR1B (RNA polymerase I subunit B)	SID315460223	-0.12
POLR1B (RNA polymerase I subunit B)	SID315460223	-0.06
POLR1B (RNA polymerase I subunit B)	SID315460223	-0.34
CD109 (CD109 molecule)	SID315461988	0.01
CD109 (CD109 molecule)	SID315461988	0.41
CD109 (CD109 molecule)	SID315461988	0.24
CD109 (CD109 molecule)	SID315461988	0.92
RARRES1 (retinoic acid receptor responder 1)	SID315451057	1.14
RARRES1 (retinoic acid receptor responder 1)	SID315451057	0.79
RARRES1 (retinoic acid receptor responder 1)	SID315451057	1.74
RARRES1 (retinoic acid receptor responder 1)	SID315451057	0.73
SAXO2 (stabilizer of axonemal microtubules 2)	SID315463700	-0.01
SAXO2 (stabilizer of axonemal microtubules 2)	SID315463700	-0.2
SAXO2 (stabilizer of axonemal microtubules 2)	SID315463700	0.24
SAXO2 (stabilizer of axonemal microtubules 2)	SID315463700	0.26
DPT (dermatopontin)	SID315448364	-0.61
DPT (dermatopontin)	SID315448364	-0.6
DPT (dermatopontin)	SID315448364	-1.04
DPT (dermatopontin)	SID315448364	-0.23
RNF187 (ring finger protein 187)	SID315462421	1.96
RNF187 (ring finger protein 187)	SID315462421	2.32
RNF187 (ring finger protein 187)	SID315462421	1.73
RNF187 (ring finger protein 187)	SID315462421	-1.7 (active)
GCKR (glucokinase regulator)	SID315448863	-0.66
GCKR (glucokinase regulator)	SID315448863	-1.37
GCKR (glucokinase regulator)	SID315448863	-0.98
GCKR (glucokinase regulator)	SID315448863	-0.57
ATPAF1 (ATP synthase mitochondrial F1 complex assembly factor 1)	SID315458971	1.87
ATPAF1 (ATP synthase mitochondrial F1 complex assembly factor 1)	SID315458971	-0.34
ATPAF1 (ATP synthase mitochondrial F1 complex assembly factor 1)	SID315458971	-0.1
ATPAF1 (ATP synthase mitochondrial F1 complex assembly factor 1)	SID315458971	0.83
RSPO3 (R-spondin 3)	SID315460534	-0.89
RSPO3 (R-spondin 3)	SID315460534	-1.14
RSPO3 (R-spondin 3)	SID315460534	-1.29
RSPO3 (R-spondin 3)	SID315460534	-0.38
TFAP2E (transcription factor AP-2 epsilon)	SID315464040	-0.55
TFAP2E (transcription factor AP-2 epsilon)	SID315464040	-0.91
TFAP2E (transcription factor AP-2 epsilon)	SID315464040	0.19
TFAP2E (transcription factor AP-2 epsilon)	SID315464040	-0.46
FOXL2 (forkhead box L2)	SID315447578	-0.44
FOXL2 (forkhead box L2)	SID315447578	0.51
FOXL2 (forkhead box L2)	SID315447578	-0.36
FOXL2 (forkhead box L2)	SID315447578	0.62
CTSZ (cathepsin Z)	SID315448186	-0.01
CTSZ (cathepsin Z)	SID315448186	-0.14
CTSZ (cathepsin Z)	SID315448186	0
CTSZ (cathepsin Z)	SID315448186	-0.6
VPS35 (VPS35 retromer complex component)	SID315457812	0.33
VPS35 (VPS35 retromer complex component)	SID315457812	-1.18
VPS35 (VPS35 retromer complex component)	SID315457812	-0.89
VPS35 (VPS35 retromer complex component)	SID315457812	-0.24
MET (MET proto-oncogene, receptor tyrosine kinase)	SID315449948	-0.54
MET (MET proto-oncogene, receptor tyrosine kinase)	SID315449948	-0.28
MET (MET proto-oncogene, receptor tyrosine kinase)	SID315449948	0.68
MET (MET proto-oncogene, receptor tyrosine kinase)	SID315449948	-0.15
POLE4 (DNA polymerase epsilon 4, accessory subunit)	SID315458099	1.84
POLE4 (DNA polymerase epsilon 4, accessory subunit)	SID315458099	1.85
POLE4 (DNA polymerase epsilon 4, accessory subunit)	SID315458099	2.25
POLE4 (DNA polymerase epsilon 4, accessory subunit)	SID315458099	2.35

Laid out differently: 9 of the entries above.
| target | PubChem SID | TNF reporter robust z-score |
| --- | --- | --- |
| ZC3H6 (zinc finger CCCH-type containing 6) | SID315464389 | 0.55 |
| KLHDC2 (kelch domain containing 2) | SID315455350 | 2.01 |
| KLHDC2 (kelch domain containing 2) | SID315455350 | 1.55 |
| KLHDC2 (kelch domain containing 2) | SID315455350 | -0.9 |
| KLHDC2 (kelch domain containing 2) | SID315455350 | -0.07 |
| KIRREL1 (kirre like nephrin family adhesion molecule 1) | SID315457527 | 1.15 |
| KIRREL1 (kirre like nephrin family adhesion molecule 1) | SID315457527 | 2.03 |
| KIRREL1 (kirre like nephrin family adhesion molecule 1) | SID315457527 | -0.37 |
| KIRREL1 (kirre like nephrin family adhesion molecule 1) | SID315457527 | 1.24 |
